Publication PMC4643968
No constants are given. Whether binding was seen depends on the method and setting. Binding seen in cells or lysates may run through a third protein.

Sequences of proteins named here, by UniProt entry; tags and fusion partners are left off.
UniProt Q48252: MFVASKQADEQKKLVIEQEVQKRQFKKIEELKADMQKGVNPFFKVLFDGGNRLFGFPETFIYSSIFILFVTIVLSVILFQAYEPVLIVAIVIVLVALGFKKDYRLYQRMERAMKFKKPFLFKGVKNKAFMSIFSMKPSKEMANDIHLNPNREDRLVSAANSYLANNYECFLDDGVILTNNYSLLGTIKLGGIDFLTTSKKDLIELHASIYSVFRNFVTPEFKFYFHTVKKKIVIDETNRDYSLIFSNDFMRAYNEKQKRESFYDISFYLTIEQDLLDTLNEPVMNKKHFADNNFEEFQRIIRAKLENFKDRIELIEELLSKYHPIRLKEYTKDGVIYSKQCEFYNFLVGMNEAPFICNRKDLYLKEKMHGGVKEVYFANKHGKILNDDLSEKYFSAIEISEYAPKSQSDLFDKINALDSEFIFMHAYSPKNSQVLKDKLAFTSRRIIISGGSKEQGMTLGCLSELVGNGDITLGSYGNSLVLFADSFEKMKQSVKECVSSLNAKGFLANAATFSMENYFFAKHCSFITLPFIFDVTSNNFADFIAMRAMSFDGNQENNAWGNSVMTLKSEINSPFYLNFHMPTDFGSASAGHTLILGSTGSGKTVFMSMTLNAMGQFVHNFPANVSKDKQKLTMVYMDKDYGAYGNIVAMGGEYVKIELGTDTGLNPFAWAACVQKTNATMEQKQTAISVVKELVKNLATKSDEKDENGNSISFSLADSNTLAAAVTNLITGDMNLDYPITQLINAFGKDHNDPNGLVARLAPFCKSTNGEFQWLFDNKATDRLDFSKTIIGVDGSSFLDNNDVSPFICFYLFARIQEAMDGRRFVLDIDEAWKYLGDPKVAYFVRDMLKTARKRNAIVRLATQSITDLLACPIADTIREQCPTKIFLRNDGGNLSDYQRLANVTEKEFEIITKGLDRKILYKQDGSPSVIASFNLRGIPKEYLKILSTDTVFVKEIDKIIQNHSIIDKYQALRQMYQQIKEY
UniProt B5Z6P9: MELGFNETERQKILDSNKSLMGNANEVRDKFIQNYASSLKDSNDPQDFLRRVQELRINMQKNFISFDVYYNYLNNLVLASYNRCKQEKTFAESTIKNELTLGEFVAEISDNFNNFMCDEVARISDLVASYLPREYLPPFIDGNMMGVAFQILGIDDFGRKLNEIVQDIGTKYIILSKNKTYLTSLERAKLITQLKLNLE

Target: CagE (HP0544), VirB4 homologue of the Helicobacter pylori Cag-T4SS, endogenous in strain P12 (Helicobacter pylori P12 (endogenous in P12)) (UniProt Q48252)
Test: co-IP; Triton X-100 solubilised extracts of Hp P12, P12ΔcagE (negative control) and P12ΔcagE/cagE; pre-cleared with pre-immune serum; anti-CagE, anti-CagV or anti-Cagβ antibody overnight at 4°C, protein-A agarose; lysis buffer 1X PBS pH 7.4, 2 mM EDTA, 2 mM DTT, 1% Triton X-100; Western blot

CagZ, endogenous in strain P12 (from UniProt B5Z6P9 1-199)
binding: no binding
